Publication PMC7819943, “Rice protein-binding microarrays: a tool to detect cis-acting elements near promoter regions in rice”
Some of the results follow.

Sequences of proteins named here, by UniProt entry; tags and fusion partners are left off.
UniProt Q0JBA9, entry or part of it: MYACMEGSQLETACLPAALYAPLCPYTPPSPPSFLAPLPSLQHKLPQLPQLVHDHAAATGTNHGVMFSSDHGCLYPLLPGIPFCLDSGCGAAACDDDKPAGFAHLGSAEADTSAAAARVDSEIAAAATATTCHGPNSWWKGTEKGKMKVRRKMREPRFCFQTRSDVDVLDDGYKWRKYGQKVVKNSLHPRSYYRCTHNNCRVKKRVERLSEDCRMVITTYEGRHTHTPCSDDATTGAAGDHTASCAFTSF

target: OsWRKY34 (Oryza sativa, UniProt Q0JBA9 1-250); assay: protein-binding microarray (RPBM); PBS, 2% BSA, 51.3 ng/ul salmon testes DNA, 50 uM zinc acetate, 200 nM TF, 25 C, 1 h; high values mean tight binding; conditions: protein: recombinant; tags: N-terminal polyhistidine and DsRed monomer fusion (pET32a); label: CyDye5-dUTP incorporated in the synthesized complementary strand; 3' TTTTT single-stranded linker to array surface; dsDNA, one strand shown
Method in brief: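 A custom Agilent array was converted to double-stranded form by primer extension with Cy5-dUTP and blocked with 2% BSA. Protein at 200 nM in PBS with 2% BSA, salmon testes DNA and 50 µM zinc acetate was applied for 1 h at 25 °C, followed by washing. The proteins were polyhistidine–DsRed N-terminal fusions of transcription factors, expressed in E. coli BL21-CodonPlus and Ni–NTA-purified. The binding signal is per-feature fluorescence intensity (arbitrary units) from an Axon 4000B scanner.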

**Q.** “CTCGCCTCGTAGCCGCCGCCGCCGCCTTGTCGCCCACTGCCGGAGTCACCTAGTGCAG” was tested. Which binding signal did it give?
**A.** 9590 fluorescence intensity (a.u.)

**Q.** “CTCAACAGCAACAGCAACAACACACTTACCAAATTTGTGTCGGAGTCACCTAGTGCAG” was tested. Which binding signal did it give?
**A.** 8240 fluorescence intensity (a.u.)

**Q.** “ATCCGAAACAATTCGCTTCTCATCCGCACCCGTACATTATCGGAGTCACCTAGTGCAG” was tested. Which binding signal did it give?
**A.** 10600 fluorescence intensity (a.u.)

**Q.** With “TTGAGTTTTTGTTTGCACTCTTTGATCCCTCGTCTTATTCCGGAGTCACCTAGTGCAG” as the sequence, how does the binding signal read?
**A.** 8390 fluorescence intensity (a.u.)

**Q.** For “ATATATATATATATATATATATATATATATATTGGCAATTCGGAGTCACCTAGTGCAG”, which binding signal is on record?
**A.** 10300 fluorescence intensity (a.u.)

**Q.** With “AATAATAACATAGCTAAAGCATGTATACCTTGCAGTACTTCGGAGTCACCTAGTGCAG” as the sequence, how does the binding signal read?
**A.** 8520 fluorescence intensity (a.u.)

**Q.** Which binding signal does the source give for “CTCCTCTTACAATATTGCTTATTTCTAATTTCGAATTTCACGGAGTCACCTAGTGCAG” here?
**A.** 8980 fluorescence intensity (a.u.)

**Q.** Which binding signal does the source give for “ATATAGATATACTTTGATCTTACTCCACCACTATTAAAATCGGAGTCACCTAGTGCAG” here?
**A.** 8830 fluorescence intensity (a.u.)

**Q.** Which binding signal does the source give for “GATTAATTACCTACCTGCTTACGTCCTCCGTGCTTAAGCACGGAGTCACCTAGTGCAG” here?
**A.** 8210 fluorescence intensity (a.u.)

**Q.** “TTGTCTATGACCCGATCTTCTACAAGCCGTAGTTCCGCCTCGGAGTCACCTAGTGCAG” was tested. Which binding signal did it give?
**A.** 8540 fluorescence intensity (a.u.)

**Q.** “GAGCACACTACTACTCCTACTCCGGTCCAGCCACTGCACACGGAGTCACCTAGTGCAG” was tested. Which binding signal did it give?
**A.** 8320 fluorescence intensity (a.u.)

**Q.** Which binding signal does the source give for “CTGTGGCCGTTTCTTGCGGCGTGGTGAGGTGAGGGGAGGGCGGAGTCACCTAGTGCAG” here?
**A.** 10600 fluorescence intensity (a.u.)

**Q.** Which binding signal does the source give for “GAGGCGAAGGGGAGGAGGAGGTCAGGTGGCGGCGGCGGCGCGGAGTCACCTAGTGCAG” here?
**A.** 8220 fluorescence intensity (a.u.)

**Q.** With “CGTCTCTTTTTTTCGCGACTTTTTTTCTTTTATTTTTCTCCGGAGTCACCTAGTGCAG” as the sequence, how does the binding signal read?
**A.** 15600 fluorescence intensity (a.u.)

**Q.** “CGTGAATGCGCCACACTGCCTCGTTTTTTTAGTGCAAGGACGGAGTCACCTAGTGCAG” was tested. Which binding signal did it give?
**A.** 11700 fluorescence intensity (a.u.)

**Q.** With “TGAATTACTACCGTGTACTCCGATCTCTCTCTGGATATACCGGAGTCACCTAGTGCAG” as the sequence, how does the binding signal read?
**A.** 8180 fluorescence intensity (a.u.)

**Q.** How did the binding signal turn out when “CTTTTGTATTTATCAAGATTGTTTGATTTTGTGCTGTTAACGGAGTCACCTAGTGCAG” was run?
**A.** 10600 fluorescence intensity (a.u.)

**Q.** Which binding signal does the source give for “ACAATTCCTATGTTTTTTCTGTGTTTTACAATCCTCTGTTCGGAGTCACCTAGTGCAG” here?
**A.** 9240 fluorescence intensity (a.u.)

**Q.** For “GCAGCCTTAATTAGCATTTCTAGAAAATTCTACTTCTTCCCGGAGTCACCTAGTGCAG”, which binding signal is on record?
**A.** 9150 fluorescence intensity (a.u.)

**Q.** For “CCTCCACCTCGCCGCCGCCGCTGCTCGCGACCGATCTTCACGGAGTCACCTAGTGCAG”, which binding signal is on record?
**A.** 10700 fluorescence intensity (a.u.)

**Q.** How did the binding signal turn out when “AGTGTTGTGGGGTTTATTTATTGTTGAGGAGATGGTCTTTCGGAGTCACCTAGTGCAG” was run?
**A.** 15500 fluorescence intensity (a.u.)

**Q.** For “CATGAAATTCTTATTCTTACATTCCAATTGGCCTTAACCTCGGAGTCACCTAGTGCAG”, which binding signal is on record?
**A.** 8500 fluorescence intensity (a.u.)

**Q.** For “CCGCTACGCTCGCCGCGCCGCCGCGGGTGGGGAGATTTGACGGAGTCACCTAGTGCAG”, which binding signal is on record?
**A.** 8650 fluorescence intensity (a.u.)

**Q.** With “TCCTCTAGTACCCACTGTGTCAATCTTCTAGTTACACTAGCGGAGTCACCTAGTGCAG” as the sequence, how does the binding signal read?
**A.** 10300 fluorescence intensity (a.u.)

**Q.** For “CCTCCACCTCCTCCCCGGGTCGGCCATGCTCTGCCTCAGCCGGAGTCACCTAGTGCAG”, which binding signal is on record?
**A.** 8620 fluorescence intensity (a.u.)

**Q.** Which binding signal does the source give for “ACCATTTTGTGATTTGTTGCTGCAAGCCTCATTATCGTTCCGGAGTCACCTAGTGCAG” here?
**A.** 9280 fluorescence intensity (a.u.)

**Q.** “ACCTACTCTGCCGTCACCGACATCCTCTTCTATGGCTCGTCGGAGTCACCTAGTGCAG” was tested. Which binding signal did it give?
**A.** 11000 fluorescence intensity (a.u.)

**Q.** For “TATTCCATCACCTCATTCTATGCTCGCTAAAACATATACCCGGAGTCACCTAGTGCAG”, which binding signal is on record?
**A.** 8590 fluorescence intensity (a.u.)

**Q.** With “TCACTTTGGGTCTCTTTATTTTTTATCCAGTCCGATTTTCCGGAGTCACCTAGTGCAG” as the sequence, how does the binding signal read?
**A.** 9230 fluorescence intensity (a.u.)

**Q.** With “CGGTAGGCCAATAGCTGTCGTCTTGCCAGATCTTTATGTCCGGAGTCACCTAGTGCAG” as the sequence, how does the binding signal read?
**A.** 8320 fluorescence intensity (a.u.)

**Q.** For “TGGGGATGGGGAATTGACCTGGGTAGGGGTGGTAATTGGGCGGAGTCACCTAGTGCAG”, which binding signal is on record?
**A.** 16000 fluorescence intensity (a.u.)

**Q.** Which binding signal does the source give for “TAGTGACGCCAACCCTCGCCTCAATCGGCCCCGCTGCCAGCGGAGTCACCTAGTGCAG” here?
**A.** 9360 fluorescence intensity (a.u.)

**Q.** How did the binding signal turn out when “GAAGAGCCGGCTCGTTCCTCTCCTTCCCGTTCACATTTCACGGAGTCACCTAGTGCAG” was run?
**A.** 8260 fluorescence intensity (a.u.)

**Q.** Which binding signal does the source give for “TCTTCGTCGCGTCATGCGCGCCCGGCCACGTTTTCCTCACCGGAGTCACCTAGTGCAG” here?
**A.** 8180 fluorescence intensity (a.u.)

**Q.** With “TCTGTTCTTCCCTAGCGATGGTTGACTTGTTACTTCTCGACGGAGTCACCTAGTGCAG” as the sequence, how does the binding signal read?
**A.** 12400 fluorescence intensity (a.u.)

**Q.** With “TAGTTAGTGTCCCTGATGGGCCTGTTGAGGTATTGACTATCGGAGTCACCTAGTGCAG” as the sequence, how does the binding signal read?
**A.** 8570 fluorescence intensity (a.u.)

**Q.** How did the binding signal turn out when “GTTACTATGGTTGTGGGCCTTACAAGCCCACTTTAGTCAACGGAGTCACCTAGTGCAG” was run?
**A.** 8130 fluorescence intensity (a.u.)

**Q.** How did the binding signal turn out when “TGTCATTTGGCATGTTCCATTCCATCAAGTGTGATTAGACCGGAGTCACCTAGTGCAG” was run?
**A.** 8690 fluorescence intensity (a.u.)

**Q.** “CCTTTCGTCCACCACCAGTCCACCACACAGCGGCCGGAGCCGGAGTCACCTAGTGCAG” was tested. Which binding signal did it give?
**A.** 9080 fluorescence intensity (a.u.)

**Q.** Which binding signal does the source give for “ATTTTGGATTTAACCGGCTTTTAAACTCGTCCATGTTTTCCGGAGTCACCTAGTGCAG” here?
**A.** 8770 fluorescence intensity (a.u.)

**Q.** How did the binding signal turn out when “ACTACTACCAGTACTGTTGTATCTGCCATTTTCTGCTCCTCGGAGTCACCTAGTGCAG” was run?
**A.** 10400 fluorescence intensity (a.u.)

**Q.** For “ATTGTCTTTATCTATTCCCAGTGCATATATTTCATACTTTCGGAGTCACCTAGTGCAG”, which binding signal is on record?
**A.** 14900 fluorescence intensity (a.u.)
